Source: the supplement of paper PMC10849652
This is one part of the list.

The chains behind the UniProt entries cited, without tags or fusion partners. Where a name states a change or a piece, a line headed by the entry shows the natural chain unless it says otherwise.
UniProt Q86VR2, whole entry, looked up: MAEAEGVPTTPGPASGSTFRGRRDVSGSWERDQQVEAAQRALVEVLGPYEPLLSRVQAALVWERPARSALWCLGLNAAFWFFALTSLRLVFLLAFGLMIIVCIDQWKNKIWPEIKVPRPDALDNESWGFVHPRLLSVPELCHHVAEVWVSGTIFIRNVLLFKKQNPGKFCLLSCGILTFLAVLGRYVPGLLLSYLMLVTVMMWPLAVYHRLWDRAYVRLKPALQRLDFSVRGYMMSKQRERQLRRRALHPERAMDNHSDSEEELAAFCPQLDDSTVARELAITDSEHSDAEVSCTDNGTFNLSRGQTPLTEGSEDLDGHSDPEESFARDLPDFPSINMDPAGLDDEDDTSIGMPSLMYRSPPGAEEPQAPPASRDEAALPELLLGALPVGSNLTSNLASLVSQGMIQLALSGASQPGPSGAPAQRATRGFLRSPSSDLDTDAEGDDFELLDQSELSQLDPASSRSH
UniProt O75792: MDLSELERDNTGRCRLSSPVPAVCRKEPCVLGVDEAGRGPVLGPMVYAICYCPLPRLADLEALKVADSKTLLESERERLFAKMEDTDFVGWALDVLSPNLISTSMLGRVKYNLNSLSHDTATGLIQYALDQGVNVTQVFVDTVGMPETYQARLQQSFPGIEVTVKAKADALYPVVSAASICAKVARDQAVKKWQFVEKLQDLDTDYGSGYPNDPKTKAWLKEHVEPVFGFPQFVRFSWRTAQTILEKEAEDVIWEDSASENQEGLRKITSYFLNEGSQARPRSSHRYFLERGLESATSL
UniProt P08134, whole entry, looked up: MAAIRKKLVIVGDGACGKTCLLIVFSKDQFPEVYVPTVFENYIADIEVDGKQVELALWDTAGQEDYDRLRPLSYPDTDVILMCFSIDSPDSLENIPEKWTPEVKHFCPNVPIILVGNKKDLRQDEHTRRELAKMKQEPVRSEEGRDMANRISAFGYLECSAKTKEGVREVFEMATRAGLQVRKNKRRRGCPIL
UniProt P18754: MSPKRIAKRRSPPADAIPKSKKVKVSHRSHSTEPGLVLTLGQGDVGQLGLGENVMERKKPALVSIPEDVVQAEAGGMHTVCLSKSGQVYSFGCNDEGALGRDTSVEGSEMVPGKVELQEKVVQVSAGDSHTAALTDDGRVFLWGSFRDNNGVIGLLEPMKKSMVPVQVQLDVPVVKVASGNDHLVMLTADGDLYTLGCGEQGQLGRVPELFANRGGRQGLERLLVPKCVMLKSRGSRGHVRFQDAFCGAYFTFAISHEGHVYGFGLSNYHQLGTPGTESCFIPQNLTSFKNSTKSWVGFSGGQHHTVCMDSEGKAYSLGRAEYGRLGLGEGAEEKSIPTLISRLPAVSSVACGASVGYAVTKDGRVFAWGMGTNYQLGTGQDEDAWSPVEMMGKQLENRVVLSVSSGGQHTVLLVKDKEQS
UniProt Q13546: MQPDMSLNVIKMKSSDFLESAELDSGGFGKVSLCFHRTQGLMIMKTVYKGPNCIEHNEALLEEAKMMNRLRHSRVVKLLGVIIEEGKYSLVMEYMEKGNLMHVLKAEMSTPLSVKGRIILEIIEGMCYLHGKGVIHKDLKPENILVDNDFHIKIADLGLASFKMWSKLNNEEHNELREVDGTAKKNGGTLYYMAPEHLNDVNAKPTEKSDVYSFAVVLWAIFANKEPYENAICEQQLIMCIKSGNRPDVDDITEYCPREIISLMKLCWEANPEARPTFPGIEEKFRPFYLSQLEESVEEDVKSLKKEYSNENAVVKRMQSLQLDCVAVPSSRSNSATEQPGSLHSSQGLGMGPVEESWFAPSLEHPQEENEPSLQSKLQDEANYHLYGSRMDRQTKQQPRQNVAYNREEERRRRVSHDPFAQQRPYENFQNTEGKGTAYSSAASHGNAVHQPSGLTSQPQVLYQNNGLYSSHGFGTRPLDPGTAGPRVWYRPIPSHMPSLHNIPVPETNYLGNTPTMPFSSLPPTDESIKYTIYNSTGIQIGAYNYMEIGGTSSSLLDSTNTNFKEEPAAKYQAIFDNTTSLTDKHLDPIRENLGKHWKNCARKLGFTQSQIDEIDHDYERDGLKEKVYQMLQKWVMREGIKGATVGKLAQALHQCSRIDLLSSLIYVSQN
UniProt Q5VTB9: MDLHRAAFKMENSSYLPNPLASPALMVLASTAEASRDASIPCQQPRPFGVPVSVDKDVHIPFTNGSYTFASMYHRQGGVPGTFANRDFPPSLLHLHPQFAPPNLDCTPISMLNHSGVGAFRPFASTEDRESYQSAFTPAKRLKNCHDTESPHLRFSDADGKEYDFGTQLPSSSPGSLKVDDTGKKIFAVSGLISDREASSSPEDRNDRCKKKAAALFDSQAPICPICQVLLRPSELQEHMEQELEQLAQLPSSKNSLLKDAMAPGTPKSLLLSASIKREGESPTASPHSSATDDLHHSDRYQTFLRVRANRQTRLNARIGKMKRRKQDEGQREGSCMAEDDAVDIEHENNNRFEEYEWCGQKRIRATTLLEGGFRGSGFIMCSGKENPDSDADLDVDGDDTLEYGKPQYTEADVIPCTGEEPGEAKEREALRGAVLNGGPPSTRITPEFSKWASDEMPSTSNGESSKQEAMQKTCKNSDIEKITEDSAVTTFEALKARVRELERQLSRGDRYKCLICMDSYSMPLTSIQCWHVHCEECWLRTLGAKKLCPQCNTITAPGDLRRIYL
UniProt Q8TDP1: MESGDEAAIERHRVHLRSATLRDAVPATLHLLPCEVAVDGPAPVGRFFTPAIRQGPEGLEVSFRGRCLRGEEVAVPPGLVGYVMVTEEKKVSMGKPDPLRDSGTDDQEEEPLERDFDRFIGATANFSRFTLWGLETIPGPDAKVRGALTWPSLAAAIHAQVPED
UniProt Q6NUM9: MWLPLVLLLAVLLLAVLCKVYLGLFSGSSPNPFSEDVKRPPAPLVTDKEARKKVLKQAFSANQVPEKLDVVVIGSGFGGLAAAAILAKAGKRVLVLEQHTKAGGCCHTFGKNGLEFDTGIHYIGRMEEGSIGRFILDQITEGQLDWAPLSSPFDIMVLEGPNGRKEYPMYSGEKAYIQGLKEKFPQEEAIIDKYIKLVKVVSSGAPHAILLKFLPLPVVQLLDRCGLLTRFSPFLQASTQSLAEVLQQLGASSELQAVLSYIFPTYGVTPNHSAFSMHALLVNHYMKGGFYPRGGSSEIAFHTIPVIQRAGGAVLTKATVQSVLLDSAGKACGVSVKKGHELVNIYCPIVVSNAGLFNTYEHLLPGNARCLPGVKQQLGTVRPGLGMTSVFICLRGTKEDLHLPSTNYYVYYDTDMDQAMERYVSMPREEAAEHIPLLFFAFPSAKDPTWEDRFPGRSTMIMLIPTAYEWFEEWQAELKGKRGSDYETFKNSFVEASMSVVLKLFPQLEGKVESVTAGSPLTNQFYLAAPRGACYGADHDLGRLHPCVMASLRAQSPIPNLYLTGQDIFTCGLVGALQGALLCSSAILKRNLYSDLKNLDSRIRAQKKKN
UniProt Q4ADV7: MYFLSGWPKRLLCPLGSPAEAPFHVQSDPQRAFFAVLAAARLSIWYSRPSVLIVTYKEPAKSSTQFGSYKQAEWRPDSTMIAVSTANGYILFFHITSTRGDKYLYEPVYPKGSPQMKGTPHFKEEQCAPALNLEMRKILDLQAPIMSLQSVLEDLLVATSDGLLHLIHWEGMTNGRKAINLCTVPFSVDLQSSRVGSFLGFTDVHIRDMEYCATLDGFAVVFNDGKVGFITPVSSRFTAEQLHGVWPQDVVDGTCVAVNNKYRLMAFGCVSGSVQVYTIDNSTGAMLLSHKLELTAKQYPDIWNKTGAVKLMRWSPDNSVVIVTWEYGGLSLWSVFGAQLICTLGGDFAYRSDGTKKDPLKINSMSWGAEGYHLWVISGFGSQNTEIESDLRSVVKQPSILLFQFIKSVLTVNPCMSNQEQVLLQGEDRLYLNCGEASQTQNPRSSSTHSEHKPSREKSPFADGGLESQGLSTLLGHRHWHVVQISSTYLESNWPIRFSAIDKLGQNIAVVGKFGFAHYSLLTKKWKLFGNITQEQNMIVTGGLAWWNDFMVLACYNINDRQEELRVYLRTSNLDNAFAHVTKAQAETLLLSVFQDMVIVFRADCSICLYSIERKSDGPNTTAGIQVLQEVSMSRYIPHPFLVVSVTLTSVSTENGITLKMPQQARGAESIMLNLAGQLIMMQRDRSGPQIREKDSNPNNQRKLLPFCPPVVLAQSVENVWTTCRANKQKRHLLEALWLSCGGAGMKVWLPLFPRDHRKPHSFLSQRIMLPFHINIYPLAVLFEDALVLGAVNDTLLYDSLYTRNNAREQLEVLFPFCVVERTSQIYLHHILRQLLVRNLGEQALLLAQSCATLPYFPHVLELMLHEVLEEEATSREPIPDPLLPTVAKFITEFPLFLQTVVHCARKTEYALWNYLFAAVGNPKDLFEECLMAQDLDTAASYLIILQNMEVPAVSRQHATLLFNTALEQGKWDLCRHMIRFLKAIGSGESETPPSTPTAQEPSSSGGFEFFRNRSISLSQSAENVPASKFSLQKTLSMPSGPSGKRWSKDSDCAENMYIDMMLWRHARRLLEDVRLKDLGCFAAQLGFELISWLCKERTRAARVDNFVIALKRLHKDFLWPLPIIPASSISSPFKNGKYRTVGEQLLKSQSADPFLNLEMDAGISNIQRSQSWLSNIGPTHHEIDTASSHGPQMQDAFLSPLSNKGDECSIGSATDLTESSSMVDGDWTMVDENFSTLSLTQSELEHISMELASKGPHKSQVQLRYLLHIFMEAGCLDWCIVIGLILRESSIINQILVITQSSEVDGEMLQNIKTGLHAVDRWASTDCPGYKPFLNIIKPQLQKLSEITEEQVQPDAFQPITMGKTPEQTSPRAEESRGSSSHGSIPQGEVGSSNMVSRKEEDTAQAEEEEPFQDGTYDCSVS
UniProt P46063: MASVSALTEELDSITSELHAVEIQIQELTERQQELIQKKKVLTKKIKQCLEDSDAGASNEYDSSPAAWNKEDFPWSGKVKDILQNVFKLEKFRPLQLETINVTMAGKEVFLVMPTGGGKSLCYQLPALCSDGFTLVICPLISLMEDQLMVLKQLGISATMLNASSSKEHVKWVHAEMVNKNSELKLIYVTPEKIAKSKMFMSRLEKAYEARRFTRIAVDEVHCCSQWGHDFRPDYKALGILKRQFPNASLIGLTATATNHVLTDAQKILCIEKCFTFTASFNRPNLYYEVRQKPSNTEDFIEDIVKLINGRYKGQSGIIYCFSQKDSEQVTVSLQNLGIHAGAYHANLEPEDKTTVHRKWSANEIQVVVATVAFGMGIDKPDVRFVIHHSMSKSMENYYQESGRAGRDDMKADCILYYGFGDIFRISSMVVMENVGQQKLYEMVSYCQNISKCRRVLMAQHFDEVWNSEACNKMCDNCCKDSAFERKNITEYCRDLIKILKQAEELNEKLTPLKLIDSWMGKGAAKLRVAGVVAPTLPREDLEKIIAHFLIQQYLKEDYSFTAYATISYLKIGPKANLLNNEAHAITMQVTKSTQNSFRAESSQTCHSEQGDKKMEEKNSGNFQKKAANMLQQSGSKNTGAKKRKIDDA
UniProt Q969G6: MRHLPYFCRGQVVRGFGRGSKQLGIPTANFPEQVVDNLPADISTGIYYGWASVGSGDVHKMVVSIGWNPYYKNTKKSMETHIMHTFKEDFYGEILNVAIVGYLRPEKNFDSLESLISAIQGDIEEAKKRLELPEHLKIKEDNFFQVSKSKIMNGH
UniProt P40938, whole entry, looked up: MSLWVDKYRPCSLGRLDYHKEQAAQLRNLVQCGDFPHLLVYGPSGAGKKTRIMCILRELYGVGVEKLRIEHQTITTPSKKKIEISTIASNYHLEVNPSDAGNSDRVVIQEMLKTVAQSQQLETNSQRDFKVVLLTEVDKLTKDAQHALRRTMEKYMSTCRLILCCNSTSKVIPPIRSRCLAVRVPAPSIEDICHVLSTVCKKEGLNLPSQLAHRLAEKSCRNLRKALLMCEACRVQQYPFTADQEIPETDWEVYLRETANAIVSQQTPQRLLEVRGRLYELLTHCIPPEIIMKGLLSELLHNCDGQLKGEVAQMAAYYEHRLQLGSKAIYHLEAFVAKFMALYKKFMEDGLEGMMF
UniProt Q04206, whole entry, looked up: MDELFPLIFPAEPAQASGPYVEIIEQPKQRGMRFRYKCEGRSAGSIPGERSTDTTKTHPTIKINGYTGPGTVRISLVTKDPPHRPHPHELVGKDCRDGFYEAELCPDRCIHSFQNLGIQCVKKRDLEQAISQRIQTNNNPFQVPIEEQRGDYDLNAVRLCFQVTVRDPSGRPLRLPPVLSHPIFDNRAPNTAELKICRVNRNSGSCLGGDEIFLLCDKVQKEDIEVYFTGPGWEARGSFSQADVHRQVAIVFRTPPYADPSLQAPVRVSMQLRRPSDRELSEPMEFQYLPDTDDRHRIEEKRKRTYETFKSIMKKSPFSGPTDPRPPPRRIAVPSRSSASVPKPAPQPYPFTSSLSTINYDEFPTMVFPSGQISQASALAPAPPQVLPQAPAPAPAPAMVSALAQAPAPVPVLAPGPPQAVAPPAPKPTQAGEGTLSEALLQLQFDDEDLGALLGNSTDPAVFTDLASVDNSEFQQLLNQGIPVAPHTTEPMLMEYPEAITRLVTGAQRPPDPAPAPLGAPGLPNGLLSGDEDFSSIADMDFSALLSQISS

Columns and labels:
Assay in all cases: log2 fold change, soluble protein after heating vs DMSO (PISA); higher = thermal stabilisation; K562 cells, 10 uM, 30 min; active = over 0.2 and 3.5 SD of the protein, either way, in both replicates (recomputed)
[1] = compound: NC(=O)Nc1cc(-c2cccc(F)c2)sc1C(=O)N[C@H]1CCCNC1
Method in brief: (§1)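 K562 cells at 2×10^6 cells/mL were treated with 10 μM compound for 30 min. Aliquots were heated for 3 min across 48°C-58°C, pooled, and extracted in PBS with 0.5% NP-40 at 4°C; soluble protein was the supernatant after 21,000xg for 90 min. Soluble protein was quantified by TMTpro 16plex LC-MS/MS with channel sums equalised, and reported as log2 fold change in thermal stability against DMSO controls, with values from duplicates.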

[2] = compound: NC(=O)c1cnc(N[C@@H]2CCCC[C@@H]2N)nc1Nc1cccc(-n2nccn2)c1
Method in brief: as §1

[3] = compound: NC1(c2ccc(-c3nc4ccn5c(=O)[nH]nc5c4cc3-c3ccccc3)cc2)CCC1
Method in brief: as §1

[4] = compound: NCC(=O)Nc1ccc(-n2nc(C(F)(F)F)cc2-c2ccc3c(ccc4ccccc43)c2)cc1
Method in brief: as §1

entinostat = compound: Nc1ccccc1NC(=O)c1ccc(CNC(=O)OCc2cccnc2)cc1 [entinostat]
Method in brief: as §1

vorinostat = compound: O=C(CCCCCCC(=O)Nc1ccccc1)NO [vorinostat]
Method in brief: as §1

citarinostat = compound: O=C(CCCCCCNC(=O)c1cnc(N(c2ccccc2)c2ccccc2Cl)nc1)NO [citarinostat]
Method in brief: as §1

silmitasertib = compound: O=C(O)c1ccc2c(c1)nc(Nc1cccc(Cl)c1)c1ccncc12 [silmitasertib]
Method in brief: as §1

[5] = compound: O=C1NC(=O)C(c2cnc3ccccn23)=C1c1cn2c3c(cc(F)cc13)CN(C(=O)N1CCCCC1)CC2
Method in brief: as §1

[6] = compound: c1cc(OCCN2CCCCC2)cc(-c2n[nH]c3ccc(-c4nnc[nH]4)cc23)c1
Method in brief: as §1

entospletinib = compound: c1cn2cc(-c3ccc4cn[nH]c4c3)nc(Nc3ccc(N4CCOCC4)cc3)c2n1 [entospletinib]
Method in brief: as §1

Measured: log2 fold change

RHEB (UniProt Q15382)
inactive: [1] -0.042 | [2] -0.014 | [3] -0.058 | [4] -0.029 | entinostat -0.012 | vorinostat 0.002 | citarinostat 0.022 | silmitasertib -0.033 | [5] -0.038 | [6] -0.025

RETREG3 (UniProt Q86VR2)
inactive: [1] 0.046 | [2] -0.033 | [3] -0.047 | [4] 0.048 | entinostat 0.007 | vorinostat -0.045 | citarinostat 0.003 | silmitasertib 0.04 | [5] -0.086 | [6] -0.03

RHOA (UniProt P61586)
inactive: [1] -0.01 | [2] 0.036 | [3] 0.204 | [4] 0.123 | entinostat -0.019 | vorinostat -0.16 | citarinostat -0.047 | silmitasertib -0.136 | [5] -0.057 | [6] 0.104

RNASEH2A (UniProt O75792)
inactive: [1] -0.017 | [2] -0.06 | [3] -0.181 | [4] -0.109 | entinostat 0.037 | vorinostat -0.145 | citarinostat 0.015 | silmitasertib 0.014 | [5] -0.208 | [6] -0.015

RHOC (UniProt P08134)
inactive: [1] -0.003 | [2] -0.015 | [3] -0.01 | [4] 0.047 | entinostat -0.024 | vorinostat -0.008 | citarinostat 0.039 | silmitasertib -0.005 | [5] -0.022 | [6] -0.002 | entospletinib 0

RCC1 isoform 2 (UniProt P18754)
inactive: [1] -0.084 | [2] -0.174 | [3] -0.18 | [4] -0.066 | entinostat 0.132 | vorinostat 0.094 | citarinostat 0.026 | silmitasertib -0.056 | [5] -0.132 | [6] -0.024

RDH13 (UniProt Q8NBN7)
inactive: [1] -0.038 | [2] -0.049 | [3] -0.064 | [4] -0.055 | entinostat -0.032 | vorinostat 0.002 | citarinostat 0.029 | silmitasertib -0.013 | [5] -0.029 | [6] -0.02

REL (UniProt Q04864)
inactive: [1] -0.053 | [2] -0.131 | [3] -0.108 | [4] 0.028 | entinostat -0.007 | vorinostat -0.122 | citarinostat 0.053 | silmitasertib 0.053 | [5] -0.054 | [6] -0.09

RIPK1 (UniProt Q13546)
inactive: [1] 0.037 | [2] -0.06 | [3] -0.092 | [4] -0.009 | entinostat 0.088 | vorinostat -0.014 | citarinostat -0.006 | silmitasertib 0.025 | [5] 0.205 | [6] 0.047

RBM4 (UniProt Q9BWF3)
inactive: [1] 0.015 | [2] -0.031 | [3] -0.017 | [4] -0.033 | entinostat 0.023 | vorinostat 0.06 | citarinostat -0.015 | silmitasertib 0.095 | [5] -0.002 | [6] -0.092

RNF220 (UniProt Q5VTB9)
inactive: [1] 0.01 | [2] -0.019 | [3] -0.002 | [4] -0.06 | entinostat -0.037 | vorinostat 0.052 | citarinostat 0.043 | silmitasertib 0.025 | [5] -0.075 | [6] -0.038

RCN3 (UniProt Q96D15)
inactive: [1] -0.042 | [2] -0.027 | [3] 0.105 | [4] -0.013 | entinostat -0.027 | vorinostat -0.122 | citarinostat -0.063 | silmitasertib -0.002 | [5] -0.039 | [6] 0.12

RNASEH2C (UniProt Q8TDP1)
inactive: [1] 0.07 | [2] -0.064 | [3] -0.169 | [4] -0.011 | entinostat 0.013 | vorinostat 0.11 | citarinostat 0.115 | silmitasertib -0.002 | [5] -0.092 | [6] -0.039 | entospletinib -0.073

RNASET2 (UniProt O00584)
inactive: [1] -0.082 | [2] -0.114 | [4] -0.033 | entinostat -0.012 | vorinostat -0.04 | citarinostat 0.074 | silmitasertib -0.018 | [5] -0.048 | [6] -0.102
active: [3] -0.285

RETSAT (UniProt Q6NUM9)
inactive: [1] -0.058 | [2] -0.05 | [3] -0.028 | [4] -0.019 | entinostat 0.129 | vorinostat -0.048 | citarinostat 0.028 | silmitasertib -0.014 | [5] 0.026 | [6] -0.047

REEP4 (UniProt Q9H6H4)
inactive: [1] 0.002 | [2] -0.032 | [3] -0.012 | [4] 0.084 | entinostat 0.027 | vorinostat 0.088 | citarinostat 0.048 | silmitasertib 0.027 | [5] 0.097 | [6] -0.059

RGS10 (UniProt O43665)
inactive: [1] 0.077 | [2] 0.068 | [3] -0.037 | [4] 0.11 | entinostat 0.038 | vorinostat 0.054 | citarinostat 0.087 | silmitasertib 0.01 | [5] -0.057 | [6] 0.033

RIC1 (UniProt Q4ADV7)
inactive: [1] -0.069 | [2] -0.084 | [3] -0.011 | [4] -0.074 | entinostat 0.123 | vorinostat -0.176 | citarinostat 0.135 | silmitasertib -0.003 | [5] 0.388 | [6] -0.024 | entospletinib -0.012

Two consecutive records already listed:
RGS10 (UniProt O43665)
inactive: [1] 0.077 | [2] 0.068 | [3] -0.037 | [4] 0.11 | entinostat 0.038 | vorinostat 0.054 | citarinostat 0.087 | silmitasertib 0.01 | [5] -0.057 | [6] 0.033

RIC1 (UniProt Q4ADV7)
inactive: [1] -0.069 | [2] -0.084 | [3] -0.011 | [4] -0.074 | entinostat 0.123 | vorinostat -0.176 | citarinostat 0.135 | silmitasertib -0.003 | [5] 0.388 | [6] -0.024 | entospletinib -0.012

More entries:

RNF187 (UniProt Q5TA31)
inactive: [1] 0.004 | [2] -0.056 | [3] -0.033 | [4] 0.07 | entinostat -0.019 | vorinostat 0.095 | citarinostat 0.054 | silmitasertib 0.012 | [5] -0.061 | [6] 0.035

RNASE4 (UniProt P34096)
inactive: [1] 0.004 | [2] -0.017 | [3] 0.144 | [4] 0.074 | entinostat 0.105 | vorinostat 0.27 | citarinostat -0.031 | silmitasertib 0.091 | [5] 0.334 | [6] 0.052 | entospletinib 0.065

RMDN3 (UniProt Q96TC7)
inactive: [1] -0.032 | [2] -0.048 | [3] -0.076 | [4] -0.031 | entinostat 0.004 | vorinostat 0.008 | citarinostat 0.033 | silmitasertib -0.007 | [5] -0.065 | [6] -0.027 | entospletinib 0.002

RHOXF2 (UniProt Q9BQY4)
inactive: [1] 0.004 | [2] 0.015 | [3] 0.039 | [4] 0.013 | entinostat -0.002 | vorinostat -0.091 | citarinostat 0.006 | silmitasertib 0.045 | [5] -0.023 | [6] -0.036

RECQL (UniProt P46063)
inactive: [1] 0.034 | [2] -0.076 | [3] -0.047 | [4] -0.033 | entinostat 0.001 | vorinostat 0.045 | citarinostat 0.092 | silmitasertib -0.028 | [5] -0.019 | [6] -0.03

RIC8A isoform 3 (UniProt Q9NPQ8)
inactive: [1] -0.035 | [2] -0.154 | [3] -0.126 | [4] -0.088 | entinostat 0.192 | vorinostat 0.058 | citarinostat 0.12 | silmitasertib -0.005 | [5] 0.084 | [6] -0.096

RFK (UniProt Q969G6)
inactive: [1] -0.001 | [2] 0.091 | [3] -0.034 | [4] 0.021 | entinostat -0.042 | vorinostat 0.016 | citarinostat 0.146 | silmitasertib 0.013 | [5] -0.125 | [6] -0.044 | entospletinib -0.005

RDH11 (UniProt Q8TC12)
inactive: [1] -0.118 | [2] 0.061 | [3] -0.049 | [4] -0.165 | entinostat 0.055 | vorinostat 0.05 | citarinostat 0.092 | silmitasertib 0.061 | [5] -0.087 | [6] -0.041

RFC3 (UniProt P40938)
inactive: [1] -0.001 | [2] -0.039 | [3] -0.078 | [4] -0.023 | entinostat -0.028 | vorinostat 0.028 | citarinostat 0.077 | silmitasertib -0.006 | [5] -0.039 | [6] -0.013

RBM39 (UniProt Q14498)
inactive: [1] -0.141 | [2] -0.079 | [3] 0.023 | [4] -0.152 | entinostat 0.02 | vorinostat 0.062 | citarinostat 0.105 | silmitasertib -0.083 | [5] 0.049 | [6] -0.144

RELA (UniProt Q04206)
inactive: [1] -0.009 | [2] -0.06 | [3] -0.121 | [4] -0.016 | entinostat 0.019 | vorinostat 0.036 | citarinostat 0.079 | silmitasertib -0.029 | [5] -0.017 | [6] -0.002
